Here are results for 27 targets from the supplement of paper PMC7666118.

Amino acid sequences for entries named in this document (tags omitted). A change or cut given only in a name is not applied to a line headed by its entry.
UniProt Q96I24: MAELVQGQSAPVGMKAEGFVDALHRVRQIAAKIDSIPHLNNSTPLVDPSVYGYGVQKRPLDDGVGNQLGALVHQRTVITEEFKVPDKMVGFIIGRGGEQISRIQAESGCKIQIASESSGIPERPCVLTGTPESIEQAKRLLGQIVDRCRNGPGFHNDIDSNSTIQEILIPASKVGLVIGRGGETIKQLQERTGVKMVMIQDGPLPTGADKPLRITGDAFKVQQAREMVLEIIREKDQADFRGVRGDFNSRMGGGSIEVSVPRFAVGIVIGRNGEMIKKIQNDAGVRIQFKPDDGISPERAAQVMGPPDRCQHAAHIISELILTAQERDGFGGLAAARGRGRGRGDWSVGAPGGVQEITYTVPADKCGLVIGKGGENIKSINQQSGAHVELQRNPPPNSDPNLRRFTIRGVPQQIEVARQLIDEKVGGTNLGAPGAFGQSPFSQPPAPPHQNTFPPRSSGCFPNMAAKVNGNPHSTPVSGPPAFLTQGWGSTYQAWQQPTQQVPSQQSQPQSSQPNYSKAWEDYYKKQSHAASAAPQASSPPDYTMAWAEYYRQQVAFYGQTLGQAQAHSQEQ
UniProt Q13158: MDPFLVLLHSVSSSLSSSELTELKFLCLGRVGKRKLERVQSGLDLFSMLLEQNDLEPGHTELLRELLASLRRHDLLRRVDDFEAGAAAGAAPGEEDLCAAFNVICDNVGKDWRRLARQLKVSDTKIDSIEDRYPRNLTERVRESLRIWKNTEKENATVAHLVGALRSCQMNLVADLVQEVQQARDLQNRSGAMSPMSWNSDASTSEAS
UniProt O60573: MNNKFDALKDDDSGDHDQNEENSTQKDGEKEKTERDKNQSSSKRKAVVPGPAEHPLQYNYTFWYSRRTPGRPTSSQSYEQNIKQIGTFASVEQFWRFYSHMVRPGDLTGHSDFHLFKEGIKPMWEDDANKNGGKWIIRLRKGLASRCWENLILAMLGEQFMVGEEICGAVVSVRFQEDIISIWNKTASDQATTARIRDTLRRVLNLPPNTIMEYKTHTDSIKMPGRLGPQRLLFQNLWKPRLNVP
UniProt Q9P2K8: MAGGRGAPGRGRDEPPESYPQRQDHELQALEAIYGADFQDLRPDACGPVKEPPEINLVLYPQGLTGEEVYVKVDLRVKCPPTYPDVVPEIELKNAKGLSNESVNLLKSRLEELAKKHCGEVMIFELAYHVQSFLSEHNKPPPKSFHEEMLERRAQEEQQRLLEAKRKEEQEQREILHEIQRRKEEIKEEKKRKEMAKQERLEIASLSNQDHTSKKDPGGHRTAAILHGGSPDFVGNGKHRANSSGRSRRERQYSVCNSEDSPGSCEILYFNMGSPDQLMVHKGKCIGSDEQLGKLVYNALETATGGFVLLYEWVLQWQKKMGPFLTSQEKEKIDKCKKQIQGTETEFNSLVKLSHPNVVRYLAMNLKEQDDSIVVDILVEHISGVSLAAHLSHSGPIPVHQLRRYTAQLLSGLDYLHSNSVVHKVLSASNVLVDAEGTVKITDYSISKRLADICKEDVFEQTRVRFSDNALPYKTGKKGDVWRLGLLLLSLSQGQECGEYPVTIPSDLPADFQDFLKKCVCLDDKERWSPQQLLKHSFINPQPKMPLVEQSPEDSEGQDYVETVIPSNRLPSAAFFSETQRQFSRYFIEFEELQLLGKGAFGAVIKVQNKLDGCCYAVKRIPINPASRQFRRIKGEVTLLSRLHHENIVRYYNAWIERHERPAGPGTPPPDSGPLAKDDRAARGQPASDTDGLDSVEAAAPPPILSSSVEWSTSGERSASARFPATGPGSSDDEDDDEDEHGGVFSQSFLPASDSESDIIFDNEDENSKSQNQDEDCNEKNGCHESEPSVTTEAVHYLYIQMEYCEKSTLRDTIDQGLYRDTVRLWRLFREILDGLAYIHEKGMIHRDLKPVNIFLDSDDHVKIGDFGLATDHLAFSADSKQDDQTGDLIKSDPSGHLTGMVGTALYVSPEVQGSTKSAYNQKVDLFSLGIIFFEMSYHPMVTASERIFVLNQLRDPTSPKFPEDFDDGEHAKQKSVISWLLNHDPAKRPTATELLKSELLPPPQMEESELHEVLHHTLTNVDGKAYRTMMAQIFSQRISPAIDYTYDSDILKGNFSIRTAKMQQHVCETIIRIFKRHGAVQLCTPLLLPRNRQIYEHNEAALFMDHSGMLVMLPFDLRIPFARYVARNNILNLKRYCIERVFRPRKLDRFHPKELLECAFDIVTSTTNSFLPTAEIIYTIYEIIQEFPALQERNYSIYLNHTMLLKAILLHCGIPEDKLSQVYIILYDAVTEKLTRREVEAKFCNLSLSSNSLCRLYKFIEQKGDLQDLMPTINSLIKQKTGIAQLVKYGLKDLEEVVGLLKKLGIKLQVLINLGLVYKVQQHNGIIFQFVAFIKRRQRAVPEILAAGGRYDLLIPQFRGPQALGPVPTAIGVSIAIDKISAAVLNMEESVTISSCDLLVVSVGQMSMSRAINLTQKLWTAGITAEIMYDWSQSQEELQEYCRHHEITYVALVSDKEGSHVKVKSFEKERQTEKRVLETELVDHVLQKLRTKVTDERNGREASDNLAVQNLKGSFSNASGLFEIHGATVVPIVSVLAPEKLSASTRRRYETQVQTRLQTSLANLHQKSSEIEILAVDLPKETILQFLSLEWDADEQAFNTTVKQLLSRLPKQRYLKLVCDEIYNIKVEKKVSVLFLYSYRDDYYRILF
UniProt O15371, whole entry: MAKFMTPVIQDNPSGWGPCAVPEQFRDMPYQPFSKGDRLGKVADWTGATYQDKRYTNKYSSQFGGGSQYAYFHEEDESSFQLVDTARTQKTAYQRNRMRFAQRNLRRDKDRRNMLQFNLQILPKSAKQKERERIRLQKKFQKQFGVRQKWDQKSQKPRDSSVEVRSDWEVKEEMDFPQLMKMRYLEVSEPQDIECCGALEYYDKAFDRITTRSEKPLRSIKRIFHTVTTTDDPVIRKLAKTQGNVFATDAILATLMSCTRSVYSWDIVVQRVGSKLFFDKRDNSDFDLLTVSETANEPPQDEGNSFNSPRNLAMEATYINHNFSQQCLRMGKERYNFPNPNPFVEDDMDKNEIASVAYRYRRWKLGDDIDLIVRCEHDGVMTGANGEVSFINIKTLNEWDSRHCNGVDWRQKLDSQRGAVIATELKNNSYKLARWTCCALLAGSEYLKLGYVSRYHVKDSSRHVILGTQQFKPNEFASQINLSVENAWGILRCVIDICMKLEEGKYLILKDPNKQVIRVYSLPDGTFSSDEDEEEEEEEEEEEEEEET
UniProt P22830: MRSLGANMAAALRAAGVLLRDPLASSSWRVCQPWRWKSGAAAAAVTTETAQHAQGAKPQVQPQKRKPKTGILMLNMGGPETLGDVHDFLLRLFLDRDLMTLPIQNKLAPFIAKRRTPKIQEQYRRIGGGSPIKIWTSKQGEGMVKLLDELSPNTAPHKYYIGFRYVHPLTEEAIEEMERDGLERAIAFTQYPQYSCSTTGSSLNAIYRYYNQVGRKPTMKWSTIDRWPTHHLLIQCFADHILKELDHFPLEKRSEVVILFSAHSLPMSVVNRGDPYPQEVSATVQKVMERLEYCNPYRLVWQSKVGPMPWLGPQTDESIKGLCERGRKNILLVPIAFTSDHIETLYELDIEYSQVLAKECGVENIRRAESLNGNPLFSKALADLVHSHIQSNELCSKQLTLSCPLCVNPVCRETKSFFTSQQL
UniProt Q12805: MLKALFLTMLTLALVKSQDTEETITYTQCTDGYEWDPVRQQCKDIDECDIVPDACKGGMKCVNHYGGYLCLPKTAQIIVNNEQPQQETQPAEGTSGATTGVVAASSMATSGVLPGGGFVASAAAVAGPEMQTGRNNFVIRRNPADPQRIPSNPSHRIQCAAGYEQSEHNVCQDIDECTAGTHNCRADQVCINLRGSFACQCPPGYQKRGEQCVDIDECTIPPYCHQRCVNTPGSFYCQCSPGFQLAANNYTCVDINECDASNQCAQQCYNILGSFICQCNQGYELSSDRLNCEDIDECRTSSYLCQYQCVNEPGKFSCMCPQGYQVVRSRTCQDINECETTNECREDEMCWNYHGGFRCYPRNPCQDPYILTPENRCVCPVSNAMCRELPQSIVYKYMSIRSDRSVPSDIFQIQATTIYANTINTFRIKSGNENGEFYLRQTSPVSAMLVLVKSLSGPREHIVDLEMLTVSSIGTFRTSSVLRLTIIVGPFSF
UniProt Q13451: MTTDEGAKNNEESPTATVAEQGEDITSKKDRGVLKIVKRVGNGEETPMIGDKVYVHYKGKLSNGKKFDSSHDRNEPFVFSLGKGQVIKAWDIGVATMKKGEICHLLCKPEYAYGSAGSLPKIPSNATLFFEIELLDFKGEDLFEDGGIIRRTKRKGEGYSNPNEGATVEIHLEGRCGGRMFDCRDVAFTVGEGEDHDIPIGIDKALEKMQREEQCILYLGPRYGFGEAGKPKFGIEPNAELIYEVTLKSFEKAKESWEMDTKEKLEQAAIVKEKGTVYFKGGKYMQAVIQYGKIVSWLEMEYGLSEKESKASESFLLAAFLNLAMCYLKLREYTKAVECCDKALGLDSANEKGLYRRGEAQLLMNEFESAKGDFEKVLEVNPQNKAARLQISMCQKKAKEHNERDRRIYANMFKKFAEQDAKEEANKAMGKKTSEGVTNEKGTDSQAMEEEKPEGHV
UniProt Q0PNE2: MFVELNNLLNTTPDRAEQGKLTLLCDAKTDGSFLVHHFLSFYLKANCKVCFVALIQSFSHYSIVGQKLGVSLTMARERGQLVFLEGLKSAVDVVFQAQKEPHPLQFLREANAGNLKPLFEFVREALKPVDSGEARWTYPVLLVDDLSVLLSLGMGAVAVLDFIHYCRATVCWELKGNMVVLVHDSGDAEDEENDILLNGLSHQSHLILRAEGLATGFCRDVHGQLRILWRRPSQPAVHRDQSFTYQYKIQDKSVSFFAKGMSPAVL
UniProt Q86X53: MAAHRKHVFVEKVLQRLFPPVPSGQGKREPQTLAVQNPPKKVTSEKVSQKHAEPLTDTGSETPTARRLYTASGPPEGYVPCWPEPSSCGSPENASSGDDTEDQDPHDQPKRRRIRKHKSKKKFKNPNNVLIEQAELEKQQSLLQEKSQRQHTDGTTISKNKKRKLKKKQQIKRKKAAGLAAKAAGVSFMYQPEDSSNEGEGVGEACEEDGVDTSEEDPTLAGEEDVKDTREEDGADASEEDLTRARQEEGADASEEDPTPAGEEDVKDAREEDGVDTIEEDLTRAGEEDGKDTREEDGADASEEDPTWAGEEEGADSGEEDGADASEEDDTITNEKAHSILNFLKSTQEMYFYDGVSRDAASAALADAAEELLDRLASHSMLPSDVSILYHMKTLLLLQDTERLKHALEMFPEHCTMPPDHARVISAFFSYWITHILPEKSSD
UniProt Q9BTL3: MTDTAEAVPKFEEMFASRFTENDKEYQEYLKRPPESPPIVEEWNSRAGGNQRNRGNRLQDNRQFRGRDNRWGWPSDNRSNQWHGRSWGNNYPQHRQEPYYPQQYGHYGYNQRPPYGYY
UniProt Q96AC1: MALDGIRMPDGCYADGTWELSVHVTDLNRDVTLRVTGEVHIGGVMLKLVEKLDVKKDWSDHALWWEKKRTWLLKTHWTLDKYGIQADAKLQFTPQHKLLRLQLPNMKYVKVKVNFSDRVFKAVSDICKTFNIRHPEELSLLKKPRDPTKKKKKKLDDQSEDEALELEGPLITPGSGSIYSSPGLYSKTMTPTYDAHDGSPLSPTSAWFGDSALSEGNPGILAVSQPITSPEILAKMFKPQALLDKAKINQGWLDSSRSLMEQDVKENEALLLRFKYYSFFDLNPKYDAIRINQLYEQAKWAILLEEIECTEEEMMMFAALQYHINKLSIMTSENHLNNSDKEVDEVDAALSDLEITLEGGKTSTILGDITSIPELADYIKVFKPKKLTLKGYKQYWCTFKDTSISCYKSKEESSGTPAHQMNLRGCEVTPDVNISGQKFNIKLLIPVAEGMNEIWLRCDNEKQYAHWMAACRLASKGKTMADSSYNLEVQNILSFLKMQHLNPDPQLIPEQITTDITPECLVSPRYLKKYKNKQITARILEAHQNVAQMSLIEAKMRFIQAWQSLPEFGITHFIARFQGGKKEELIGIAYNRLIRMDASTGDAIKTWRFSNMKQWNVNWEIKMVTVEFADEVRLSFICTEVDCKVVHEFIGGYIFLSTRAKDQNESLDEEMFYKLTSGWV

The other results are listed elsewhere or left out.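 Rule for the calls: active = dose-dependent thermal stabilisation significant by F-test of dose-response against flat model at 10% FDR; inactive = not significant.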

Compound in this test: Nc1nc2c(ncn2[C@@H]2O[C@H](COP(=O)(O)OP(=O)(O)OP(=O)(O)O)[C@@H](O)[C@H]2O)c(=O)[nH]1
The test can be described thus: dose-dependent thermal stabilisation call (2D-TPP, DLPTP, 10% FDR) (binary (1 = stabilised)); higher = stabilised by the compound. Conditions: system: Jurkat gel-filtered lysate; concentration range 1-500 µM.
Regarding FUBP3 (UniProt Q96I24), the “dose-dependent thermal stabilisation call” value was inactive: 0.

Take FADD (UniProt Q13158): the “dose-dependent thermal stabilisation call” value was inactive: 0. In the case of EHD1 (UniProt Q9H4M9), the “dose-dependent thermal stabilisation call” value was active: 1. Regarding ERF (UniProt P50548), the “dose-dependent thermal stabilisation call” value is inactive: 0. As to EIF4E2 (UniProt O60573), the “dose-dependent thermal stabilisation call” value was inactive: 0. As to EIF2AK4 (UniProt Q9P2K8), the “dose-dependent thermal stabilisation call” value was inactive: 0. As to EIF3D (UniProt O15371), the “dose-dependent thermal stabilisation call” value is inactive: 0. As to FECH (UniProt P22830), the “dose-dependent thermal stabilisation call” value was inactive: 0. As for EXOC5 (UniProt O00471), the figure is inactive: 0; as for EFEMP1 (UniProt Q12805), inactive: 0. Turning to FAM208B (UniProt Q5VWN6), the “dose-dependent thermal stabilisation call” value is inactive: 0.

On to FAM208A (UniProt Q9UK61), for which the “dose-dependent thermal stabilisation call” value was active: 1. Regarding FKBP5 (UniProt Q13451), the “dose-dependent thermal stabilisation call” value is inactive: 0. As to ESYT2 (UniProt A0FGR8), the “dose-dependent thermal stabilisation call” value was inactive: 0. As to FAM120B (UniProt Q96EK7), the “dose-dependent thermal stabilisation call” value is active: 1. As for FTH1 (UniProt P02794), the figure is inactive: 0. With FNBP4 (UniProt Q8N3X1), the “dose-dependent thermal stabilisation call” value is inactive: 0.

Turning to ERCC5 (UniProt P28715), the “dose-dependent thermal stabilisation call” value is inactive: 0. As to EIF4G3 (UniProt O43432), the “dose-dependent thermal stabilisation call” value was inactive: 0.

As for ENPP4 (UniProt Q9Y6X5), the “dose-dependent thermal stabilisation call” value was inactive: 0. Turning to ENOSF1 (UniProt Q7L5Y1), the “dose-dependent thermal stabilisation call” value was inactive: 0. ELP6 (UniProt Q0PNE2): the “dose-dependent thermal stabilisation call” value is inactive: 0.

As to EXOSC4 (UniProt Q9NPD3), the “dose-dependent thermal stabilisation call” value was inactive: 0. As to ERICH1 (UniProt Q86X53), the “dose-dependent thermal stabilisation call” value was inactive: 0.

Regarding FAM103A1 (UniProt Q9BTL3), the “dose-dependent thermal stabilisation call” value was inactive: 0.

Turning to FNTB (UniProt P49356), the “dose-dependent thermal stabilisation call” value was inactive: 0.

For the target FERMT2 (UniProt Q96AC1), the “dose-dependent thermal stabilisation call” value was inactive: 0.
